This is an account of results in the supplement of paper PMC12009310.

Structures are written as SMILES. Counter-ions that a name gives are not always drawn. ± gives the standard deviation of the averaged measurements. The list shows a part of the results. Plates or batches differ in their baseline, so values are only roughly comparable.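 A mouse kidney inner medullary collecting duct cell line was silenced for the ciliary gene Rpgrip1l or given non-targeting control siRNA. Primary scores average two runs versus batch controls. In follow-up screening, hits raised cilia at least 2 over matched controls; compounds lowering cell number by 2 or more were excluded. The cells are a mouse kidney inner medullary collecting duct line, silenced either for the ciliary gene Rpgrip1l or with a non-targeting control siRNA.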

Assay [1] concerns mIMCD3. Description: robust z score of cell number vs plate controls; higher = more cells (less cytotoxic). As to conditions: 10 µM, 48 h.
Assay [2] relates to mIMCD3. Description: robust z score of cilia incidence (% cells with single cilium) vs plate controls; higher = more ciliated cells. As to conditions: 10 µM; 48 h; siRNA: siScr.
For assay [3], the system named is mIMCD3. The experiment in a line: robust z score of cilia incidence (% cells with single cilium) vs plate controls; higher = more ciliated cells (rescue of cilia loss). As to conditions: 10 µM; 48 h; siRNA: siRpgrip1l.
Assay [4] has as its system mIMCD3. Description: robust z cell number difference from vehicle control (robust z score difference); higher = more cells. As to conditions: 10 µM, 48 h.
The subject of assay [5] is mIMCD3. The experiment in a line: robust z cilia incidence difference from vehicle control (robust z score difference); higher = more ciliated cells. As to conditions: 10 µM; 48 h; siRNA: siScr.
For assay [6], the system named is mIMCD3. The experiment in a line: robust z cilia incidence difference from vehicle control (robust z score difference); higher = more ciliated cells (rescue). As to conditions: 10 µM; 48 h; siRNA: siRpgrip1l.

Turning to `NC(C(=O)O)c1nn[nH]n1` (racemic) [(RS)-(Tetrazol-5-yl)glycine], the figures for the “robust z score of cell number” value in the assay on mIMCD3 [1] (siRNA: siRpgrip1l) and in the assay with mIMCD3 [1] (siRNA: siScr) were 3.57 ± 3.1 and 3.33 ± 3.1, respectively. Also, the “robust z score of cilia incidence” value is 2.72 ± 1.9 with mIMCD3 [2] and -8.94 ± 7.7 with mIMCD3 [3].

In the case of `O=C(O)CCC(CP(=O)(O)O)C(=O)O` (stereo not drawn) [PMPA (NAALADase inhibitor)], the “robust z score of cell number” value in the assay on mIMCD3 [1] (siRNA: siRpgrip1l) is -7.13 ± 4.3; in the assay with mIMCD3 [1] (siRNA: siScr), 0.649 ± 2.2. In addition, the figures for the “robust z cell number difference” value with mIMCD3 [4] (siRNA: siRpgrip1l) and with mIMCD3 [4] (siRNA: siScr) were 0.609 and -1 ± 4.1, respectively. Moreover, the entries for the “robust z score of cilia incidence” value in the assay on mIMCD3 [2] and in the assay on mIMCD3 [3] were 0.0528 ± 8.5 and -5.8 ± 0.92, respectively. In addition, the “robust z cilia incidence difference” value in the assay with mIMCD3 [5] turned out to be 3.35 ± 3; with mIMCD3 [6], 3.1.

As for `C[N+]1(C)CCc2cc3c(cc2[C@H]1[C@@H]1OC(=O)c2c1ccc1c2OCO1)OCO3` [(-)-Bicuculline methiodide], the “robust z score of cell number” value is -11.1 ± 14 in the assay on mIMCD3 [1] (siRNA: siRpgrip1l) and -0.364 ± 1.2 in the assay with mIMCD3 [1] (siRNA: siScr). Further, the “robust z cell number difference” value in the assay on mIMCD3 [4] (siRNA: siRpgrip1l) is -3.56; in the assay on mIMCD3 [4] (siRNA: siScr) it was -1.08 ± 3.1. The “robust z score of cilia incidence” value was 3.42 ± 0.12 in the assay with mIMCD3 [2] and -12.7 ± 7.7 with mIMCD3 [3]. For the same molecule, the “robust z cilia incidence difference” value is 3.42 ± 1.4 in the assay with mIMCD3 [5] and -2.66 in the assay with mIMCD3 [6].

With `FC(F)(F)c1cccc(C2=CCN(CCc3ccc4ccccc4c3)CC2)c1` [Xaliproden hydrochloride], the “robust z score of cell number” value in the assay with mIMCD3 [1] (siRNA: siRpgrip1l) was -0.602 ± 3.6; in the assay with mIMCD3 [1] (siRNA: siScr), -43.9 ± 52. Moreover, the “robust z score of cilia incidence” value with mIMCD3 [2] is -15.6 ± 0.88; with mIMCD3 [3] it was -23.1 ± 5.6.

Regarding `NCCc1c[nH]c2ccc(C(N)=O)cc12` [5-Carboxamidotryptamine maleate], the “robust z score of cell number” value with mIMCD3 [1] (siRNA: siRpgrip1l) was -3.8 ± 4.5; in the assay on mIMCD3 [1] (siRNA: siScr), -7.55 ± 5.9. Also, the entries for the “robust z score of cilia incidence” value in the assay on mIMCD3 [2] and with mIMCD3 [3] were 0.356 ± 4 and -5.54 ± 3, respectively.

For `O=c1[nH]c2ccccc2n1C1CCN(CCCC(c2ccc(F)cc2)c2ccc(F)cc2)CC1` [Pimozide], the “robust z score of cell number” value is -30.78 ± 0.28 with mIMCD3 [1] (siRNA: siRpgrip1l) and -29.6 ± 15 in the assay on mIMCD3 [1] (siRNA: siScr). For the same molecule, the “robust z score of cilia incidence” value in the assay with mIMCD3 [2] is -47.8 ± 10; with mIMCD3 [3], -28.3 ± 4.5.

With `CC[C@@H](CO)NC(=O)[C@@H]1C=C2c3cccc4[nH]cc(c34)C[C@H]2N(C)C1` [Methylergometrine maleate], the “robust z score of cell number” value in the assay with mIMCD3 [1] (siRNA: siRpgrip1l) is 3.09 ± 6.8; in the assay on mIMCD3 [1] (siRNA: siScr), -2.31 ± 4.5. Besides, the “robust z cell number difference” value is -9.51 with mIMCD3 [4] (siRNA: siRpgrip1l) and -7.29 ± 1.5 with mIMCD3 [4] (siRNA: siScr). Moreover, the “robust z score of cilia incidence” value in the assay with mIMCD3 [2] is 4.23 ± 4.8; in the assay with mIMCD3 [3], -7.27 ± 5.5. Also, the “robust z cilia incidence difference” value with mIMCD3 [5] was -1.02 ± 0.92; with mIMCD3 [6], -8.6.

For `NCCc1c[nH]c2ccc(O)cc12` [Serotonin], the “robust z score of cell number” value in the assay on mIMCD3 [1] (siRNA: siRpgrip1l) was -8.91 ± 8.2; in the assay on mIMCD3 [1] (siRNA: siScr), -3.61 ± 2.4. Also, the “robust z score of cilia incidence” value is -9.09 ± 9.2 in the assay with mIMCD3 [2] and -7.76 ± 1.6 with mIMCD3 [3].

For the molecule `c1ccc(CC(c2ccccc2)N2CCCCC2)cc1` (racemic) [(±)-1-(1,2-Diphenylethyl)piperidine maleate], the “robust z score of cell number” value in the assay on mIMCD3 [1] (siRNA: siRpgrip1l) was -9.39 ± 5.2; in the assay with mIMCD3 [1] (siRNA: siScr), -15.7 ± 28. Also, the entries for the “robust z score of cilia incidence” value in the assay on mIMCD3 [2] and in the assay on mIMCD3 [3] were -3.28 ± 4 and -20.3 ± 17, respectively.

Regarding `Cc1onc(O)c1C[C@H](N)C(=O)O`, the “robust z score of cell number” value in the assay on mIMCD3 [1] (siRNA: siRpgrip1l) is -2.43 ± 4; with mIMCD3 [1] (siRNA: siScr) it was 0.108 ± 1.2. For the same molecule, the “robust z cell number difference” value came to 1.52 with mIMCD3 [4] (siRNA: siRpgrip1l) and 4.49 ± 5.9 in the assay with mIMCD3 [4] (siRNA: siScr). The “robust z score of cilia incidence” value in the assay with mIMCD3 [2] was 3.19 ± 3.5; in the assay on mIMCD3 [3] it was -11.7 ± 7.1. Besides, the results for the “robust z cilia incidence difference” value in the assay with mIMCD3 [5] and in the assay on mIMCD3 [6] were -4.64 ± 7.3 and 3.49, respectively.

For the molecule `CC(C)(C)OC(=O)c1ncn2c1[C@@H]1CCCN1C(=O)c1c(Br)cccc1-2` [Bretazenil], the “robust z score of cell number” value with mIMCD3 [1] (siRNA: siRpgrip1l) is -13.2 ± 4; with mIMCD3 [1] (siRNA: siScr) it was -5.12 ± 0.087. The entries for the “robust z score of cilia incidence” value in the assay with mIMCD3 [2] and in the assay on mIMCD3 [3] were -7.67 ± 5.2 and -13.7 ± 6.9, respectively.

Turning to `CC(=O)[C@H]1CC[C@H]2[C@@H]3CC[C@H]4C[C@](C)(O)CC[C@]4(C)[C@H]3CC[C@]12C` [Ganaxolone], the “robust z score of cell number” value is -12.3 ± 7.6 in the assay with mIMCD3 [1] (siRNA: siRpgrip1l) and -44.8 ± 37 in the assay on mIMCD3 [1] (siRNA: siScr). Moreover, the “robust z score of cilia incidence” value in the assay with mIMCD3 [2] was -4.09 ± 2.2; in the assay on mIMCD3 [3], -20.1 ± 1.4.

For the molecule `CCCN1CCO[C@@H]2c3cc(O)ccc3OC[C@H]21`, the results for the “robust z score of cell number” value in the assay with mIMCD3 [1] (siRNA: siRpgrip1l) and in the assay on mIMCD3 [1] (siRNA: siScr) were -33.6 ± 4.9 and -2.21 ± 0.49, respectively. The “robust z score of cilia incidence” value with mIMCD3 [2] is 4.62 ± 6.6; in the assay with mIMCD3 [3], -8.72 ± 1.6.
